Some of the results follow.
Assays:
Experiment in all cases: log2 fold change, soluble protein after heating vs DMSO (PISA); higher = thermal stabilisation; K562 cells, 10 uM, 30 min; active = over 0.2 and 3.5 SD of the protein, either way, in both replicates (recomputed)
[1] = compound: COC1=CC=C(C=C1)CN2C=CC3=C2C=C(C=C3)C(=O)NO
Summary of the method: (§1)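 Thermal stability values are relative to control samples and come from duplicates. They are expressed as log2 fold changes. For measurement, K562 cells (2×10^6 cells/mL) received 10 μM compound for 30 min, and aliquots were heated for 3 min over 48°C-58°C, pooled, and extracted at 4°C in PBS with 0.5% NP-40. Soluble protein, the supernatant after 21,000xg for 90 min, was quantified by TMTpro 16plex LC-MS/MS with equalised channel sums.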

Amino acid sequences for entries named in this document (tags omitted). A change or cut given only in a name is not applied to a line headed by its entry.
UniProt P41567, whole entry, looked up: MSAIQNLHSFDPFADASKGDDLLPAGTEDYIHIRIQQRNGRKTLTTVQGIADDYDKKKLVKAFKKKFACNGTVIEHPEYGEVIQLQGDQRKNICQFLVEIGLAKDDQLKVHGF
UniProt Q8N5X7: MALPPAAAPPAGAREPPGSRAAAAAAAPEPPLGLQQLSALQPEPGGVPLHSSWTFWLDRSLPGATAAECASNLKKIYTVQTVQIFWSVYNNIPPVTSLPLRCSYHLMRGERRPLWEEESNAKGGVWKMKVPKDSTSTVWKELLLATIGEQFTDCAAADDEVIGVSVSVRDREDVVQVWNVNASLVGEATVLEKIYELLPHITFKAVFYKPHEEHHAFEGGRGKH
UniProt O60573: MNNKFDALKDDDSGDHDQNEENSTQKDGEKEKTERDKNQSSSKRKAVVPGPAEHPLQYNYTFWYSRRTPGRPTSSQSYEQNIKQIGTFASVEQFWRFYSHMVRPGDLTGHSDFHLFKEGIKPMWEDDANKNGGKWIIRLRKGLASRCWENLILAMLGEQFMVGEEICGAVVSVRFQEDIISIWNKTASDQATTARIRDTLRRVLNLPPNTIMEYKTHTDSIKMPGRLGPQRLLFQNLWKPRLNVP
UniProt O43324: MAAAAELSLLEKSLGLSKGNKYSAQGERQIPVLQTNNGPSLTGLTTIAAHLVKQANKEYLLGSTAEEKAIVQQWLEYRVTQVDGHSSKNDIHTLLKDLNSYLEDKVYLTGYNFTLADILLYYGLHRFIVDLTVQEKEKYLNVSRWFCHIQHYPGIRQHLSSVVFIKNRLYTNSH
UniProt Q7L2H7, whole entry, looked up: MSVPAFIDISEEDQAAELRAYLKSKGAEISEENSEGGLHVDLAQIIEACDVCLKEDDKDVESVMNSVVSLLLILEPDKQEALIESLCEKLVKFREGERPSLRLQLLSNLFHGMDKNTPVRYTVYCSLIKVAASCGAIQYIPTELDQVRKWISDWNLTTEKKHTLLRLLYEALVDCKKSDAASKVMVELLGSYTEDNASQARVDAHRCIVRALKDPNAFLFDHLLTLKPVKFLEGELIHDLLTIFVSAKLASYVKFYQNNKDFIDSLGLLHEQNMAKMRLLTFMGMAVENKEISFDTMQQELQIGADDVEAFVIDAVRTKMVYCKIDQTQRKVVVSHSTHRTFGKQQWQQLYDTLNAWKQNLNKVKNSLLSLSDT
UniProt O43402: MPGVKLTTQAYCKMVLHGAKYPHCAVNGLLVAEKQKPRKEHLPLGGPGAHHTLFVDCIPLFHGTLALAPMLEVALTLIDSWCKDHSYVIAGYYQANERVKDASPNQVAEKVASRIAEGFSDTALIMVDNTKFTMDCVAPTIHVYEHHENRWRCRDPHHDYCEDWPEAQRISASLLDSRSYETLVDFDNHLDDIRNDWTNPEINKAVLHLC
UniProt O43432, whole entry, looked up: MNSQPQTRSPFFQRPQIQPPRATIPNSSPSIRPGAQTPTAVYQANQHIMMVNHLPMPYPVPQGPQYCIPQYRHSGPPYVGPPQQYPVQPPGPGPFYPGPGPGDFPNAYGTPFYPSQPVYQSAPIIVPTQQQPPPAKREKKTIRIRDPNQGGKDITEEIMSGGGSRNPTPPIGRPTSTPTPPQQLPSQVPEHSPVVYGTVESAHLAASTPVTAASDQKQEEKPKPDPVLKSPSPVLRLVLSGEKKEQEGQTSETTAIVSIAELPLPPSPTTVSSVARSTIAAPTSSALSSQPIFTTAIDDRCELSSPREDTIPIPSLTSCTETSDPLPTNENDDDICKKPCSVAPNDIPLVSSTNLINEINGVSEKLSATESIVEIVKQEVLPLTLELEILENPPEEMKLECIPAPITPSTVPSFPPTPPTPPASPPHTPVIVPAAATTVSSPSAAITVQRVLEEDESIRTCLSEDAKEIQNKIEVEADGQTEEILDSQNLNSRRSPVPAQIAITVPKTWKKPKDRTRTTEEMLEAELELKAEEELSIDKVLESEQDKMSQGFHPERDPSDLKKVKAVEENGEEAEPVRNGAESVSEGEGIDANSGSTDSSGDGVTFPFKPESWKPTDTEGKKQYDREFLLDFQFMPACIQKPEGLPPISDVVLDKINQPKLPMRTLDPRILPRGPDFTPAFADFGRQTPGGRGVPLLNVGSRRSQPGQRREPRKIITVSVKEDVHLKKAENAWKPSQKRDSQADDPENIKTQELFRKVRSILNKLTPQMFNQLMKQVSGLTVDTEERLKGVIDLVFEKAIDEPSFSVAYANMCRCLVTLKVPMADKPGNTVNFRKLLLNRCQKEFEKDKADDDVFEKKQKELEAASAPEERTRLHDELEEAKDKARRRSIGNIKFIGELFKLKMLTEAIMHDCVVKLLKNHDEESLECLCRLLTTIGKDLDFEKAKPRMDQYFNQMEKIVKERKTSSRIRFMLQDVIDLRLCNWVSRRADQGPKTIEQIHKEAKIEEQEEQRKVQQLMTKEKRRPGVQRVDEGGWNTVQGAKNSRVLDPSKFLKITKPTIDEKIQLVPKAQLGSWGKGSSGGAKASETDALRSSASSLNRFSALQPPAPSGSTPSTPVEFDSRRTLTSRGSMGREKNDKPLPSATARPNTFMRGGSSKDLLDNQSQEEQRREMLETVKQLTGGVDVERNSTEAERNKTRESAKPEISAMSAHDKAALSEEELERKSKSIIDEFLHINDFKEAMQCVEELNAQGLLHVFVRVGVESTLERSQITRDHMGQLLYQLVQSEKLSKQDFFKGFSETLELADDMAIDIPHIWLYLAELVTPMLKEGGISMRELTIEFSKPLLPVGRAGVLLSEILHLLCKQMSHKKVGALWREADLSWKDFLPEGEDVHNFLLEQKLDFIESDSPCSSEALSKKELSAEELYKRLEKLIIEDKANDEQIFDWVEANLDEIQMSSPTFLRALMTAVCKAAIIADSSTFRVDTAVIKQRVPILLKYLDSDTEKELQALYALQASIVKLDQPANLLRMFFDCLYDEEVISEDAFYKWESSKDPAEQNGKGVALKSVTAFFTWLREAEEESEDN
UniProt O14638, whole entry, looked up: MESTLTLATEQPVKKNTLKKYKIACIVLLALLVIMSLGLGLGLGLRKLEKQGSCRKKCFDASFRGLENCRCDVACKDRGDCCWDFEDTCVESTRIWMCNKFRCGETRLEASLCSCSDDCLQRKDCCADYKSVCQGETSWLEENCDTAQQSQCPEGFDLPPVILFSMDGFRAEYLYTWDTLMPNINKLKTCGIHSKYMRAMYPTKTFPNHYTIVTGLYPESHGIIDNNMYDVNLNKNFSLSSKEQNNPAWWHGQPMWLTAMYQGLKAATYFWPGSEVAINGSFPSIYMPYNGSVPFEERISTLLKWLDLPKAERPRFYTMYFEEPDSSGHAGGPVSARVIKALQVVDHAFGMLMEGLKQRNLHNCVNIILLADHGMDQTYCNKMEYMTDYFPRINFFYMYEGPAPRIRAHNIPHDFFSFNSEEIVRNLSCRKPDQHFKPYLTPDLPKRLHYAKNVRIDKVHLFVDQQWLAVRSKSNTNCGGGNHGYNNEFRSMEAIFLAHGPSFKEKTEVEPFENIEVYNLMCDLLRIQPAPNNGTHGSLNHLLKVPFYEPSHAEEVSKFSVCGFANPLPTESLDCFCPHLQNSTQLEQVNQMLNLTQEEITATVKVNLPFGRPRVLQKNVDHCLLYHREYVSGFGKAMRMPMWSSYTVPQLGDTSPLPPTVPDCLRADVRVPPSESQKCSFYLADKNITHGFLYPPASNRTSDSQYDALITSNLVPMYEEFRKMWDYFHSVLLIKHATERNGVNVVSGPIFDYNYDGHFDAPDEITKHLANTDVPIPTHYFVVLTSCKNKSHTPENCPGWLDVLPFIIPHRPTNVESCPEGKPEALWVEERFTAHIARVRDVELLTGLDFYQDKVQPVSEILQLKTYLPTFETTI
UniProt Q14249: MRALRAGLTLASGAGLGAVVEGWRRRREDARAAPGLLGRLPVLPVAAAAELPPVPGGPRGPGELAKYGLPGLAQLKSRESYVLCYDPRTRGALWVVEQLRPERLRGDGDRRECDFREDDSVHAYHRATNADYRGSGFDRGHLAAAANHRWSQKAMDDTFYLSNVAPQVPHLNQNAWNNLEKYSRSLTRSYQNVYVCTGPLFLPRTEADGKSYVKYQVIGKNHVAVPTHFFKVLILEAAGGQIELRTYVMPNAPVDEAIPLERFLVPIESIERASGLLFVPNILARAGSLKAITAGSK
UniProt Q15717, whole entry, looked up: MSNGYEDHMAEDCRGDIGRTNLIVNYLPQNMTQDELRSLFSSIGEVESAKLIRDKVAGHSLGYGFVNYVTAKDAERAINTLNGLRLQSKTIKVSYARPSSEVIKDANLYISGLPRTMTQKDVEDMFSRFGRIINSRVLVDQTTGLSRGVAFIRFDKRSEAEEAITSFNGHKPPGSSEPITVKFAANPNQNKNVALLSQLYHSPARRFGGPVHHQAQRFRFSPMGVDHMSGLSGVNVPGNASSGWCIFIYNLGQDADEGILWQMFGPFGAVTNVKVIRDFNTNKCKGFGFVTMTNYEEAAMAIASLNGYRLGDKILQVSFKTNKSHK
UniProt Q96C19: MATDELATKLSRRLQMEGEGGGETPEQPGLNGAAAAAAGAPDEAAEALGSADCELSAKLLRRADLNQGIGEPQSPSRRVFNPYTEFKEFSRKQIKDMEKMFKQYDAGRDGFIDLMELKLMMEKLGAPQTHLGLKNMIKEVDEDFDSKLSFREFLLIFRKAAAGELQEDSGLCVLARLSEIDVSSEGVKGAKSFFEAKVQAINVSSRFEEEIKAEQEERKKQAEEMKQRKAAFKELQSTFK
UniProt P13929, whole entry, looked up: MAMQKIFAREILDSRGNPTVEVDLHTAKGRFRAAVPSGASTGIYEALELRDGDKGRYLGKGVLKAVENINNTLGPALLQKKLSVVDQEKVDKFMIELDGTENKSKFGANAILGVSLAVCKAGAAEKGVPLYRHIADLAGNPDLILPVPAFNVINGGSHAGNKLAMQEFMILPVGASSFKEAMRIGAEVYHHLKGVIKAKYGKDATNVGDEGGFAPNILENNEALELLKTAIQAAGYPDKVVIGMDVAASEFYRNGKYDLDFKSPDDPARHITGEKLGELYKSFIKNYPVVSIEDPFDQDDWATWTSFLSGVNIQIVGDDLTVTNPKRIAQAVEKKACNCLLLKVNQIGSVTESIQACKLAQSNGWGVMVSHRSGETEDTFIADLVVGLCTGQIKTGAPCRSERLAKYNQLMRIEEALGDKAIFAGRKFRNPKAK
UniProt P06730, whole entry, looked up: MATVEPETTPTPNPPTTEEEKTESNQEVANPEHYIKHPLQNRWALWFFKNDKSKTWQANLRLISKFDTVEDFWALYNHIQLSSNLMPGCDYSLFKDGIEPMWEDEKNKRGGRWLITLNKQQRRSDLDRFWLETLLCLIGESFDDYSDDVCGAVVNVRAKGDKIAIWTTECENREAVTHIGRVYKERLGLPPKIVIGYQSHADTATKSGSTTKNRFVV
UniProt P54852: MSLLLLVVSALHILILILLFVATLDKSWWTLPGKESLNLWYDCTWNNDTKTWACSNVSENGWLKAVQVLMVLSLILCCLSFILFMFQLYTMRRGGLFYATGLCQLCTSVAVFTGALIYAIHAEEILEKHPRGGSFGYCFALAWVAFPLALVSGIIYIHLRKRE
UniProt O75356: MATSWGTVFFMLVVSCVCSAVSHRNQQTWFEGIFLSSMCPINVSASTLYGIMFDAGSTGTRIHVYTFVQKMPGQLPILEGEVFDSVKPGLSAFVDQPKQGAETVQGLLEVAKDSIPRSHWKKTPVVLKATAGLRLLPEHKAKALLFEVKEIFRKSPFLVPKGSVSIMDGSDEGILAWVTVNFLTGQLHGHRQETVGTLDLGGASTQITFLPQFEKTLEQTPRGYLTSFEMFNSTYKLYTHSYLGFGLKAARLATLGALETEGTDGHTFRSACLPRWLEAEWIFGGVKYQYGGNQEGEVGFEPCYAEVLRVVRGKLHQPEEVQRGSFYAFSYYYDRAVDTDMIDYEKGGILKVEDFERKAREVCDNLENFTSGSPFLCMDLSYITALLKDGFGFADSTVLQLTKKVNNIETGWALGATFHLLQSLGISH
UniProt Q9BY44: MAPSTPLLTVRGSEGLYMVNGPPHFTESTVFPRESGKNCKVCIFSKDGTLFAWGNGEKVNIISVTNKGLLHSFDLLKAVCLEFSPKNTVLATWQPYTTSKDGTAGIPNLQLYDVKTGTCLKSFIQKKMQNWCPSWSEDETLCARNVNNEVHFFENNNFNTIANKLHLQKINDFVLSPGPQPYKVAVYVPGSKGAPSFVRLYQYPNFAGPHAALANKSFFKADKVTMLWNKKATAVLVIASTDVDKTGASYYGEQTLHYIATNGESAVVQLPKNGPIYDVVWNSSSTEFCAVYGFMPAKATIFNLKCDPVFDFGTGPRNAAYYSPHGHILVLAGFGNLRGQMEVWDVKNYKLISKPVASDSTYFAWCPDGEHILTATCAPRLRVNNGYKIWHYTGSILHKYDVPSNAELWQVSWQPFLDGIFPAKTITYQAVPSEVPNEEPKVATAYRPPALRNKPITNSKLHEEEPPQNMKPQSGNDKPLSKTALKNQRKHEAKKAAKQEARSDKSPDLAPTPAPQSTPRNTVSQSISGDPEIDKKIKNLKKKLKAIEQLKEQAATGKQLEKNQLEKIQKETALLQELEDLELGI

filanesib = compound: CON(C)C(=O)N1N=C(c2cc(F)ccc2F)S[C@@]1(CCCN)c1ccccc1 [filanesib]
Summary of the method: as §1

zotarolimus = compound: CO[C@H]1C[C@@H]2CC[C@@H](C)[C@@](O)(O2)C(=O)C(=O)N2CCCC[C@H]2C(=O)O[C@H]([C@H](C)C[C@@H]2CC[C@H](n3cnnn3)[C@H](OC)C2)CC(=O)[C@H](C)/C=C(\C)[C@@H](O)[C@@H](OC)C(=O)[C@H](C)C[C@H](C)/C=C/C=C/C=C/1C [zotarolimus]
Summary of the method: as §1

idasanutlin = compound: COc1cc(C(=O)O)ccc1NC(=O)[C@@H]1N[C@@H](CC(C)(C)C)[C@](C#N)(c2ccc(Cl)cc2F)[C@H]1c1cccc(Cl)c1F [idasanutlin]
Summary of the method: as §1

alisertib = compound: COc1cc(Nc2ncc3c(n2)-c2ccc(Cl)cc2C(c2c(F)cccc2OC)=NC3)ccc1C(=O)O [alisertib]
Summary of the method: as §1

[2] = compound: COc1cc2nc(-c3cc(F)ccc3O)nc(N[C@@H]3CNC[C@H]3C(C)(C)O)c2cc1OC
Summary of the method: as §1

gefitinib = compound: COc1cc2ncnc(Nc3ccc(F)c(Cl)c3)c2cc1OCCCN1CCOCC1 [gefitinib]
Summary of the method: as §1

[3] = compound: COc1cccc2cc(-c3nc([C@H]4CC[C@H](C(=O)O)CC4)n4ncnc(N)c34)[nH]c12
Summary of the method: as §1

lapatinib = compound: CS(=O)(=O)CCNCc1ccc(-c2ccc3ncnc(Nc4ccc(OCc5cccc(F)c5)c(Cl)c4)c3c2)o1 [lapatinib]
Summary of the method: as §1

pictilisib = compound: CS(=O)(=O)N1CCN(Cc2cc3nc(-c4cccc5[nH]ncc45)nc(N4CCOCC4)c3s2)CC1 [pictilisib]
Summary of the method: as §1

Target | log2 fold change [1] | log2 fold change (filanesib) | log2 fold change (zotarolimus) | log2 fold change (idasanutlin) | log2 fold change (alisertib) | log2 fold change [2] | log2 fold change (gefitinib) | log2 fold change [3] | log2 fold change (lapatinib) | log2 fold change (pictilisib)
EIF1 (UniProt P41567) | inactive: -0.067 | inactive: 0.019 | inactive: 0.014 | inactive: 0.029 | inactive: -0.021 | inactive: 0.025 | inactive: -0.06 | inactive: 0.011 | inactive: -0.067 | inactive: -0.028
EIF4E3 (UniProt Q8N5X7) | inactive: 0.009 |  |  |  |  |  |  |  |  | 
EIF4E2 (UniProt O60573) | inactive: -0.062 | inactive: -0.089 | inactive: 0.058 | inactive: 0.024 | inactive: 0.059 | inactive: -0.043 | inactive: 0.043 | inactive: -0.251 | inactive: 0.033 | 
EEF1E1 (UniProt O43324) | inactive: -0.096 | inactive: 0.07 | inactive: 0.01 | inactive: 0.056 | inactive: -0.019 | inactive: 0.021 | inactive: 0 | inactive: -0.032 | inactive: 0 | inactive: -0.067
EIF3M (UniProt Q7L2H7) | inactive: 0.096 | inactive: 0.035 | inactive: 0.1 | inactive: 0.03 | inactive: -0.001 | inactive: 0.007 | inactive: -0.026 | inactive: -0.14 | inactive: 0.005 | inactive: 0.045
EMC8 (UniProt O43402) | inactive: -0.025 | inactive: -0.061 | inactive: -0.012 | inactive: -0.028 | inactive: 0.021 | inactive: 0.022 | inactive: 0.005 | inactive: 0.014 | inactive: 0.013 | inactive: 0.004
EIF4G3 isoform 3 (UniProt O43432) | inactive: -0.15 | inactive: 0.063 | inactive: 0.002 | inactive: 0 | inactive: -0.003 | inactive: -0.01 | inactive: 0.032 | inactive: -0.32 | inactive: 0.142 | 
ENPP3 (UniProt O14638) | inactive: -0.192 | inactive: 0.059 | inactive: 0.131 | inactive: 0.078 | inactive: 0.009 | inactive: 0.055 | inactive: -0.061 | inactive: -0.095 | inactive: -0.056 | inactive: 0.141
ENDOG (UniProt Q14249) | inactive: 0.019 | inactive: -0.045 | inactive: -0.015 | inactive: -0.089 | inactive: -0.016 | inactive: 0.102 | inactive: 0.04 | inactive: -0.039 | inactive: 0 | inactive: -0.013
ELAVL1 isoform 2 (UniProt Q15717) | inactive: 0.006 | inactive: 0.296 | inactive: -0.026 | inactive: 0.245 | inactive: -0.153 | inactive: -0.068 | inactive: -0.018 | inactive: -0.133 | inactive: 0.012 | inactive: -0.032
EFHD2 (UniProt Q96C19) | inactive: -0.023 | inactive: -0.215 | inactive: 0.061 | inactive: -0.051 | inactive: -0.014 | inactive: 0.111 | inactive: -0.052 | inactive: -0.025 | inactive: -0.04 | inactive: 0.063
ENO3 (UniProt P13929) | inactive: 0.173 | inactive: -0.076 | inactive: 0.024 | inactive: -0.049 | inactive: -0.043 | inactive: -0.1 | inactive: -0.064 | inactive: -0.054 | inactive: 0.058 | inactive: -0.037
EIF4E isoform 2 (UniProt P06730) | inactive: -0.002 | inactive: -0.038 | active: 0.346 | inactive: -0.085 | inactive: -0.083 | inactive: 0.039 | inactive: 0.112 | active: 0.354 | inactive: 0.039 | active: 0.373
EMP3 (UniProt P54852) | inactive: -0.162 | inactive: 0.041 | inactive: 0.062 | inactive: 0.034 | inactive: 0.117 | inactive: -0.032 | inactive: -0.035 | inactive: 0.209 | inactive: -0.001 | 
ENTPD5 (UniProt O75356) | inactive: -0.081 | inactive: 0.039 | inactive: 0.197 | inactive: -0.02 | inactive: -0.022 | inactive: 0.009 | inactive: 0.078 | inactive: -0.063 | inactive: 0.033 | 
EIF2A (UniProt Q9BY44) | inactive: 0.052 | inactive: 0.041 | inactive: 0.013 | inactive: 0.026 | inactive: -0.071 | inactive: 0.007 | inactive: -0.016 | inactive: -0.137 | inactive: 0.055 | inactive: -0.059

Quoted from the listing:
Value for EIF2A (UniProt Q9BY44) under log2 fold change (filanesib): inactive: 0.041
Value for EFHD2 (UniProt Q96C19) under log2 fold change [2]: inactive: 0.111

From the supplement of paper PMC10849652
